The other results are listed elsewhere or left out.

By UniProt entry, the sequences of proteins in these tests, tags left out. Where a name states a change or a piece, a line headed by the entry shows the natural chain unless it says otherwise.
UniProt Q96LB3: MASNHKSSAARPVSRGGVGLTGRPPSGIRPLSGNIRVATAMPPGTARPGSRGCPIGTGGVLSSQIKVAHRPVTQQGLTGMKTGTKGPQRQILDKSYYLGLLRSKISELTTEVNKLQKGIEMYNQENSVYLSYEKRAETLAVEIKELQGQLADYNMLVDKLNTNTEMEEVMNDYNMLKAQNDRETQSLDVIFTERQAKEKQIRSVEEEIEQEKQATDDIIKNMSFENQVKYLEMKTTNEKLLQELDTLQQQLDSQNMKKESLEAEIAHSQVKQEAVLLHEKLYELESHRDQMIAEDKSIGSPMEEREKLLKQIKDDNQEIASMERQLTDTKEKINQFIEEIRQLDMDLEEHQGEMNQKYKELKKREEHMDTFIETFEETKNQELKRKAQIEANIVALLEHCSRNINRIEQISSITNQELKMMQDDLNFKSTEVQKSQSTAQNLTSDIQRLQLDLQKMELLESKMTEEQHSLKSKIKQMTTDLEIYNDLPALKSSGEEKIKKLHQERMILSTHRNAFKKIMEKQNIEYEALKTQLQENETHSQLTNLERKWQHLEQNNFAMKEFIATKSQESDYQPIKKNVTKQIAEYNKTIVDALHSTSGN
UniProt Q9Y4L1: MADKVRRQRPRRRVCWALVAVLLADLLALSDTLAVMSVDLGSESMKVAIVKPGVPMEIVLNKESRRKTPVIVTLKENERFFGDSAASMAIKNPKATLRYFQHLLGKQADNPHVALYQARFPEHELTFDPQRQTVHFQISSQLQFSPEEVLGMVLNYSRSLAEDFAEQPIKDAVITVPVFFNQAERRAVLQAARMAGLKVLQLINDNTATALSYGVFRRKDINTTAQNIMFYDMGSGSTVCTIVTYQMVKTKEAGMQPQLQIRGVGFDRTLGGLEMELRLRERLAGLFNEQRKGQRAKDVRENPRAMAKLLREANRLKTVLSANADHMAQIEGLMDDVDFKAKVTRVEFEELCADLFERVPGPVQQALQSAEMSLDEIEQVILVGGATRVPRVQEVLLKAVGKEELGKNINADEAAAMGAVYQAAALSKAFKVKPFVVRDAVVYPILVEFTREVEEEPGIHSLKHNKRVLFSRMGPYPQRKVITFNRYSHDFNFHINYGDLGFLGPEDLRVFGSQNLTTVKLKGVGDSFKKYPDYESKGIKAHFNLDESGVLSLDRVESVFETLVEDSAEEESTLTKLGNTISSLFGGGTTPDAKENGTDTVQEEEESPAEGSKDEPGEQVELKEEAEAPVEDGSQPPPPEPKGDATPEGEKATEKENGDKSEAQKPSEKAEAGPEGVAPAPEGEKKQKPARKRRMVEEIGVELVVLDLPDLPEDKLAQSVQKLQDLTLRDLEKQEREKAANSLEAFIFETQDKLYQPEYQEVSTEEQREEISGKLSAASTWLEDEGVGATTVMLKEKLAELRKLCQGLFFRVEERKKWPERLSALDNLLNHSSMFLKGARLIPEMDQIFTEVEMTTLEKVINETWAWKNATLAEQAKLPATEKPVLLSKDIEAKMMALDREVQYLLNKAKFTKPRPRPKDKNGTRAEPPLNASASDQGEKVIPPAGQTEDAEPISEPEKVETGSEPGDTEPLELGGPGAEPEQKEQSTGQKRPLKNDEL
UniProt Q8N201, whole entry, looked up: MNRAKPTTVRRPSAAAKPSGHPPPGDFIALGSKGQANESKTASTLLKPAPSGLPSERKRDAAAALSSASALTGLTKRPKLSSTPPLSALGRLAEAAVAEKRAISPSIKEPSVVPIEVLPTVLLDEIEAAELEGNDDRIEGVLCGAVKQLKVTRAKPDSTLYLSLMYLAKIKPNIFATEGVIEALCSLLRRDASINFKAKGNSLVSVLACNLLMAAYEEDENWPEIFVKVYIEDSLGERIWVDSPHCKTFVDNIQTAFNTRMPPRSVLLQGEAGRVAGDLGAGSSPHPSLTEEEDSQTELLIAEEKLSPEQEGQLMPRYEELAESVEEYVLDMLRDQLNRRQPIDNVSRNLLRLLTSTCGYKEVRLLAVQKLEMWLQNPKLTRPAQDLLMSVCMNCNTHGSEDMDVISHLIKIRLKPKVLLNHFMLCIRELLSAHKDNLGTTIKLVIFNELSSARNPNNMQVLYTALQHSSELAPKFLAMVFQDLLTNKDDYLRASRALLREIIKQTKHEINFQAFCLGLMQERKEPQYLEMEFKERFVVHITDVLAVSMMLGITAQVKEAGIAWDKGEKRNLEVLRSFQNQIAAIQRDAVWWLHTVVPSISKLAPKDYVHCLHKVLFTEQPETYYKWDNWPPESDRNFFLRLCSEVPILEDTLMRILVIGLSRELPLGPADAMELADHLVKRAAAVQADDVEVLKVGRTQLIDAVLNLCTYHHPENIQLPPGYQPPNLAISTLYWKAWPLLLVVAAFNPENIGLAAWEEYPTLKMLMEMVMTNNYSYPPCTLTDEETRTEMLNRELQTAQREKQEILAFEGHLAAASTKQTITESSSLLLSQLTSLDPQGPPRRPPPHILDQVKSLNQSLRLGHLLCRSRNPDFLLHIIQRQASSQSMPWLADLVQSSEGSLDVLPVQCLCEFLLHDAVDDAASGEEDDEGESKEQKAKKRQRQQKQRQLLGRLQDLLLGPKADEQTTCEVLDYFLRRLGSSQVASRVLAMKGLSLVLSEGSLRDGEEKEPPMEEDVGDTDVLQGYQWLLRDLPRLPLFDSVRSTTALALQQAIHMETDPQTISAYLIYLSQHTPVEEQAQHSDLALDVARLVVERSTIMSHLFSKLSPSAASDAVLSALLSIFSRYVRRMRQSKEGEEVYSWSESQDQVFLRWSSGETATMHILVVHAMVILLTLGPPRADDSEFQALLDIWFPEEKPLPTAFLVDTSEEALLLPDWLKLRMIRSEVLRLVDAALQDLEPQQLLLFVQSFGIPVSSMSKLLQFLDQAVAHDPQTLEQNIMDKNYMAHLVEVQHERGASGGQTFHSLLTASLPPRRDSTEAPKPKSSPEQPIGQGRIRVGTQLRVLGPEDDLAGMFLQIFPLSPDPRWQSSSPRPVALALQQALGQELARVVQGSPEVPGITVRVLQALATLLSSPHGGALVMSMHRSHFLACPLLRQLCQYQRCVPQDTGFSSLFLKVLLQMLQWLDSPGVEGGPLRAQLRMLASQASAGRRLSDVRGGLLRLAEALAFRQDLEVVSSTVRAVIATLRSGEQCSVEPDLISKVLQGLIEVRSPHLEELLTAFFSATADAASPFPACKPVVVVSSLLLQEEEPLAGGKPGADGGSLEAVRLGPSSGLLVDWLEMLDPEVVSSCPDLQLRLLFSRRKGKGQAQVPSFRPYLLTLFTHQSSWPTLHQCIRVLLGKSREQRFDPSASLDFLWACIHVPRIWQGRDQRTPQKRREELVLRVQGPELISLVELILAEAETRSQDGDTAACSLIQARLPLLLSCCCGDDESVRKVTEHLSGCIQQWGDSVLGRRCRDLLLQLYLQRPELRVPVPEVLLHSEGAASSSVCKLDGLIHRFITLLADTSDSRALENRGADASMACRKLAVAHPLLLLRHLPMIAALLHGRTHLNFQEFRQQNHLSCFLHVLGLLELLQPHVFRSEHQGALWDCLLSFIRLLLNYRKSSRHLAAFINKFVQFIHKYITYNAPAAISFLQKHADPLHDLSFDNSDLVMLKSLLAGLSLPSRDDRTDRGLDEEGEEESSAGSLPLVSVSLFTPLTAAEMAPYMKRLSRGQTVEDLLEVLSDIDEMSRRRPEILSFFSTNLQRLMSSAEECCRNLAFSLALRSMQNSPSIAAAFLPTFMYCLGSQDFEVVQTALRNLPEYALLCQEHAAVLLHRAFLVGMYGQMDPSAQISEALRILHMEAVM
UniProt Q13418: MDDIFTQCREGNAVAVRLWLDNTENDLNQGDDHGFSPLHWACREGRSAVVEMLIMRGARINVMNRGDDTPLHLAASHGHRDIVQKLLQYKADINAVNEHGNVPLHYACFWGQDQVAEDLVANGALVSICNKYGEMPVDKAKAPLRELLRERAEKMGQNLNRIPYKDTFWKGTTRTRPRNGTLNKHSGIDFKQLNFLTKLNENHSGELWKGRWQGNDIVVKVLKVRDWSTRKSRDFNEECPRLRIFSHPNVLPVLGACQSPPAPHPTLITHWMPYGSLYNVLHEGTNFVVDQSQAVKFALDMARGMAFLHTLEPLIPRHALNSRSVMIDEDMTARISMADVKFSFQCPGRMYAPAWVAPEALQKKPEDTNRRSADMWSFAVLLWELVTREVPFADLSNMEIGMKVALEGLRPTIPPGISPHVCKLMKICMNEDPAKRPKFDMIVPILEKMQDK
UniProt O75054: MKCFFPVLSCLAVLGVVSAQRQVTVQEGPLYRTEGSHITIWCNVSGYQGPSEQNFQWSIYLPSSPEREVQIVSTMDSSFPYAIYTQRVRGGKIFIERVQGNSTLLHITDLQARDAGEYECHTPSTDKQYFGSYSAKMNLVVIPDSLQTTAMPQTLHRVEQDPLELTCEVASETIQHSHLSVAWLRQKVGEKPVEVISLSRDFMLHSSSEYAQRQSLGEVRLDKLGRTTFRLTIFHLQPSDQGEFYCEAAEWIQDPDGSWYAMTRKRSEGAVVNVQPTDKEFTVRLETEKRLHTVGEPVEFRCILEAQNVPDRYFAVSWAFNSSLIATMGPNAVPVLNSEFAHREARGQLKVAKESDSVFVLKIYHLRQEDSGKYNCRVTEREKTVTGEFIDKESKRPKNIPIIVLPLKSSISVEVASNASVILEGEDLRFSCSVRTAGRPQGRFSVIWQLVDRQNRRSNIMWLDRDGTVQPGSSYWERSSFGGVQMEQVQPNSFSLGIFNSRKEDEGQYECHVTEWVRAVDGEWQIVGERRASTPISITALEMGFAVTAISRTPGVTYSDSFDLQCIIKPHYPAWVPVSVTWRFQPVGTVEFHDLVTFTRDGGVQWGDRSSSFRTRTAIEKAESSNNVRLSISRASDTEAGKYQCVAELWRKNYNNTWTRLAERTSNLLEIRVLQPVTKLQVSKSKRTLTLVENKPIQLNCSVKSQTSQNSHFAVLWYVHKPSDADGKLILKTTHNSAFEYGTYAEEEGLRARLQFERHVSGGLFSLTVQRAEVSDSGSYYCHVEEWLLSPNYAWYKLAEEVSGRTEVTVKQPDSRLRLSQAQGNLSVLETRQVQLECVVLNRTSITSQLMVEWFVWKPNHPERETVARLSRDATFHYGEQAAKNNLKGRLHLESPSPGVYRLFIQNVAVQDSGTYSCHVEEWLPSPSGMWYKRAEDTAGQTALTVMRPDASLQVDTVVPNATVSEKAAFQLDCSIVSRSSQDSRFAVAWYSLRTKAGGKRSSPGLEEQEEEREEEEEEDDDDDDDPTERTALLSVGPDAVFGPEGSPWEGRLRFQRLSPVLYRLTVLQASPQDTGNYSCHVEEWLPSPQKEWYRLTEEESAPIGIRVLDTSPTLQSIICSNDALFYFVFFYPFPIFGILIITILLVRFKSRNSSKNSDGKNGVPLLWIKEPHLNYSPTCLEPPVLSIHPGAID
UniProt Q12905: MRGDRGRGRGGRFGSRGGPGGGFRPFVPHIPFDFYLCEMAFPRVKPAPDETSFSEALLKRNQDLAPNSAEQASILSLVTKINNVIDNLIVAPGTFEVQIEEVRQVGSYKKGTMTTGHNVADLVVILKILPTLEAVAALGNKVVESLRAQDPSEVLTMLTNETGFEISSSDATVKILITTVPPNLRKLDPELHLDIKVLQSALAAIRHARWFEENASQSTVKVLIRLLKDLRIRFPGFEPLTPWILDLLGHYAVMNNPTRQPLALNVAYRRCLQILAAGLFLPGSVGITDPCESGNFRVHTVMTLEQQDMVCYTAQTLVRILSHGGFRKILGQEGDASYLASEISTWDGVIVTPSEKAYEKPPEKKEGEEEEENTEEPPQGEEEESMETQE
UniProt Q9BUP3: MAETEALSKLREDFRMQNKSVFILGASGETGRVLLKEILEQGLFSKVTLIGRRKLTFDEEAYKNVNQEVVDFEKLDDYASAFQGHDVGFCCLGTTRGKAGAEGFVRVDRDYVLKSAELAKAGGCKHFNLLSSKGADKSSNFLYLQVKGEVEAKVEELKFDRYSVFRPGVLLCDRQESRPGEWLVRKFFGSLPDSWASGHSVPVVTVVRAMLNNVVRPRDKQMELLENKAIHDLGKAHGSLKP
UniProt Q08334: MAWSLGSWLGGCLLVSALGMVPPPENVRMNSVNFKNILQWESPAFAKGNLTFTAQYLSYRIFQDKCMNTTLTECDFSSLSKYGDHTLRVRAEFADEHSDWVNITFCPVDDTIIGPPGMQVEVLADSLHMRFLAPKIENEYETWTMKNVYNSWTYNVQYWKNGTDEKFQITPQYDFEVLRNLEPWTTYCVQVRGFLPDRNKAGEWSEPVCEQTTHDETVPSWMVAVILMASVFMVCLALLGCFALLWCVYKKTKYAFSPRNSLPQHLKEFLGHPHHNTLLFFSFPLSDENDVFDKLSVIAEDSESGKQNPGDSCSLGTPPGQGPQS
UniProt Q01628, whole entry, looked up: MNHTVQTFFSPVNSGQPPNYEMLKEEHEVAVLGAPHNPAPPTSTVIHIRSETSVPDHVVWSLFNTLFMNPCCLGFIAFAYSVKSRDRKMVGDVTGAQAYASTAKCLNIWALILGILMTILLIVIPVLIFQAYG

Compound in one assay: NCC(=O)Nc1ccc(-n2nc(C(F)(F)F)cc2-c2ccc3c(ccc4ccccc43)c2)cc1
Kind of assay: log2 fold change, soluble protein after heating vs DMSO (PISA); higher = thermal stabilisation; K562 lysate, 10 uM; active = over 0.2 and 3.5 SD of the protein, either way, in both replicates (recomputed). The method in brief:
(§1)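 Pellets of K562 cells were dounce-homogenised in PBS pH 7.4 with 1 mM MgCl2, and the crude extract was held at 1 mg/mL protein for a 30 min treatment with 10 μM compound. Aliquots were heated for 3 min over 48°C-58°C and pooled before NP-40 was added to 0.5% at 4°C. The supernatant from 21,000xg for 90 min was quantified by TMTpro 16plex LC-MS/MS with channel sums equalised. Values are reported from duplicates as log-two fold change in thermal stability relative to solvent controls.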
With IFT74 (UniProt Q96LB3), the log2 fold change was inactive: 0.071.

Turning to INPP4A (UniProt Q96PE3), the log2 fold change was inactive: 0.016.

Consider HYOU1 (UniProt Q9Y4L1), for which the log2 fold change is inactive: 0.031. Same read-out and setting: to IDH2 (UniProt P48735) belongs inactive: -0.01. Same read-out and setting: to INPP5K (UniProt Q9BT40) belongs inactive: -0.117; to INTS1 (UniProt Q8N201), inactive: 0.014. With IK (UniProt Q13123), the log2 fold change is inactive: 0.03.

With ILK (UniProt Q13418), the log2 fold change was inactive: -0.047. On the same count and under the same terms, the value for HUS1 (UniProt O60921) was inactive: 0.04.

Compound in another assay: O=C(CCCCCCC(=O)Nc1ccccc1)NO [vorinostat]
The assay is described as above. The method in brief: as §1
Consider IDH3A (UniProt P50213), for which the log2 fold change is inactive: 0.069. IGSF3 (UniProt O75054): the log2 fold change was inactive: 0.131.

Turning to ILKAP (UniProt Q9H0C8), the log2 fold change was active: -0.288. Same read-out and setting: to ICAM1 (UniProt P05362) belongs inactive: 0.072. The same measure, in the same setting: to IDH3B (UniProt O43837) belongs inactive: 0.068. The same measure, in the same setting: to IGSF8 (UniProt Q969P0) belongs inactive: 0.075; to ILVBL (UniProt A1L0T0), inactive: 0.033; to IDE, A0A3B3ISG5, inactive: 0.073. Turning to ILF2 (UniProt Q12905), the log2 fold change is inactive: 0.08.

With HTATIP2 isoform 3 (UniProt Q9BUP3), the log2 fold change is inactive: -0.245.

In the case of IGF2BP1 (UniProt Q9NZI8), the log2 fold change is inactive: -0.169.

In the case of HYOU1 (UniProt J3QL06), the log2 fold change is inactive: -0.037. Still for that read-out and setting: to IMPA1 isoform 3 (UniProt P29218) belongs inactive: 0.11; to IDH1 (UniProt O75874), inactive: -0.051. Same read-out and setting: the value for HUWE1 (UniProt Q7Z6Z7) was inactive: -0.035; that for HSPA8 (UniProt P11142) was inactive: 0.105. On to IL10RB (UniProt Q08334), for which the log2 fold change was inactive: -0.062. Same read-out and setting: the value for IDH3G (UniProt P51553) was inactive: 0.083.

With ICAM5 (UniProt Q9UMF0), the log2 fold change was inactive: 0.059.

Turning to IBA57 (UniProt Q5T440), the log2 fold change was inactive: 0.063. Turning to IGBP1 (UniProt P78318), the log2 fold change was inactive: 0.072. On the same count and under the same terms, to IFI30 (UniProt P13284) belongs inactive: 0.014; to HYPK (UniProt Q9NX55), inactive: 0.16; to IFITM3 (UniProt Q01628), inactive: 0.067. As to IFT74 (UniProt Q96LB3), the log2 fold change was inactive: 0.095. Same read-out and setting: to INPP4A (UniProt Q96PE3) belongs inactive: -0.106; to HYOU1 (UniProt Q9Y4L1), inactive: 0.069. The same measure, in the same setting: the value for IDH2 (UniProt P48735) was inactive: -0.194; that for INPP5K (UniProt Q9BT40) was inactive: -0.213; that for INTS1 (UniProt Q8N201) was active: -0.409. As for IK (UniProt Q13123), the log2 fold change is inactive: -0.171. Still for that read-out and setting: to ILK (UniProt Q13418) belongs active: -0.343; to HUS1 (UniProt O60921), inactive: 0.029.

(Values after the supplement of paper PMC10849652.)
